The record followed here is publication PMC6698648, “A Fanci knockout mouse model reveals common and distinct functions for FANCI and FANCD2” (Nucleic Acids Research, 2019).

By UniProt entry, the sequences of proteins in these tests, tags left out.
UniProt Q9NVI1: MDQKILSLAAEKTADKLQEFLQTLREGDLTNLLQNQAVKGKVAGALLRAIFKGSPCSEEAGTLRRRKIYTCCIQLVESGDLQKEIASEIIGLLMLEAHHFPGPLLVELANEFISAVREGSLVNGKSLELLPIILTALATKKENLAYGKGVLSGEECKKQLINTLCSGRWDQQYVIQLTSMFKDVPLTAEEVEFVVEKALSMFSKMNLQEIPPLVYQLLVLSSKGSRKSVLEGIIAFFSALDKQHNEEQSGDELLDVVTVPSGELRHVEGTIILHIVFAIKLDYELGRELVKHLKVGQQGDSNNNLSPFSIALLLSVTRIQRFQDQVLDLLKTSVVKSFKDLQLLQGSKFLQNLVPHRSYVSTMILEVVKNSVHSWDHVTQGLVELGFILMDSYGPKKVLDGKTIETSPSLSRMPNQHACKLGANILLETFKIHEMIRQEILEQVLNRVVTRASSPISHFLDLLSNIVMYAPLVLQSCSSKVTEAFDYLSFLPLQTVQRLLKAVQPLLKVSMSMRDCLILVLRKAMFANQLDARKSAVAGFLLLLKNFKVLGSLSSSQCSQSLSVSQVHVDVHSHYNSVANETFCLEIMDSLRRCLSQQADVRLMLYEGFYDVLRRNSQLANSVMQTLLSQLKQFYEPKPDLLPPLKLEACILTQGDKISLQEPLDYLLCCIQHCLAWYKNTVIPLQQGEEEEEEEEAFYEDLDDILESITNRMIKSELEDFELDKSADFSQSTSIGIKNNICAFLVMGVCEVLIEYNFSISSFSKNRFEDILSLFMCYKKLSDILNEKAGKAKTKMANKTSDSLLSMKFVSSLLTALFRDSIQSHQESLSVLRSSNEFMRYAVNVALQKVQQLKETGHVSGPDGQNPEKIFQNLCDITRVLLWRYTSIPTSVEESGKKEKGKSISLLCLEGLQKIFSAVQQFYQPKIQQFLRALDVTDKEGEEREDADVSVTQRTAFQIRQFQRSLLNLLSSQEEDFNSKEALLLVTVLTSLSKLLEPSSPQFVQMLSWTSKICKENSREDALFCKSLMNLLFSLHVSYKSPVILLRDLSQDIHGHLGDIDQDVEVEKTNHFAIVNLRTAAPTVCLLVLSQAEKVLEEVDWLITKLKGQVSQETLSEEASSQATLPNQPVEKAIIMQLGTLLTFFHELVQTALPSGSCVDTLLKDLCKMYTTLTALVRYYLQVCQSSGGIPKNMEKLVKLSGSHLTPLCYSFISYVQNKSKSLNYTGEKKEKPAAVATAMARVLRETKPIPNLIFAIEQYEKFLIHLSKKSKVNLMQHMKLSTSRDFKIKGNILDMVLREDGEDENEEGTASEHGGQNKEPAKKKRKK
UniProt Q06609: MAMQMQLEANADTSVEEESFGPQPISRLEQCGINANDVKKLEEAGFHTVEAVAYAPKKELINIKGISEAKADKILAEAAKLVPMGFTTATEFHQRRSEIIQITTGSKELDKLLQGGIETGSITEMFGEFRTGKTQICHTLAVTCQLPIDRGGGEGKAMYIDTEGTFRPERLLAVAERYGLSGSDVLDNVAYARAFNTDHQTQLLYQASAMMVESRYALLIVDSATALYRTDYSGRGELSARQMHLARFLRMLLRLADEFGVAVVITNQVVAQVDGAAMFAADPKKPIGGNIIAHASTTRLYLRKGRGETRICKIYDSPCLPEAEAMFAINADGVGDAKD

The assay has as its target FANCI (UniProt Q9NVI1). As to the kind of experiment: co-IP; 250 ng FANCI with 250 ng RAD51, purified recombinant proteins, 15 min at 37°C in 50 mM Tris-HCl pH 7.5, 250, 500 or 750 mM NaCl, 0.5% NP-40; immunoprecipitated with anti-FANCI and protein A/G-sepharose at 4°C, western blot with anti-RAD51; both purified. On the technique in general: A western blot detects proteins with antibodies after separation by electrophoresis.

These are yes or no findings as the source states them, for the method shown. Some results given as binding are weak or reduced against the parent protein; the word gives no strength.

As to Human RAD51 (from UniProt Q06609 1-339), the binding result is reported as “binds”.
